We go through 1 molecule from article PMC7493948.

The target of the assay is Flag-EGFR (epidermal growth factor receptor, Flag-tagged) (UniProt P00533). As to the kind of experiment: co-IP; HEK293 cells transiently transfected (48 h) with Flag alone, Flag-EGFR or Flag-BMP2; incubated with Fc-IgG1 or Fc-GREM1 (100 ng/ml each) for 1 h at 37 °C; lysates (IP Lysis Buffer) immunoprecipitated with anti-Flag antibody and protein A/G PLUS-agarose; blotted with anti-Fc antibody; only the binder purified.

Results are given in words; binding and its absence hold for the method and conditions named. Binding seen in cells or lysates may run through a third protein. Some results given as binding are weak or reduced against the parent protein; the word gives no strength. Tags and fused reporters may be left off the sequences shown.

B1: Fc-GREM1 (Gremlin-1 fused to Fc) (Fc fusion, UniProt O60565 25-184)
chain: KKKGSQGAIPPPDKAQHNDSEQTQSPQQPGSRNRGRGQGRGTAMPGEEVLESSQEALHVTERKYLKRDWCKTQPLKQTIHEEGCNSRTIINRFCYGQCNSFYIPRHIRKEEGSFQSCSFCKPKKFTTMMVTLNCPELQPPTKKKRVTRVKQCRCISIDLD
Consider B1, for which the binding entry is “binds”.
